Laboratory results as given in article PMC7515705.
Results are given in words; binding and its absence hold for the method and conditions named. Binding seen in cells or lysates may run through a third protein. These calls come from enrichment with a bait or labelling near it, and not all partners need be listed. Sequences can lack the tags named with a protein.

Molecular target: T1, YBEY-3 × FLAG (human) (UniProt P58557)
T1 sequence: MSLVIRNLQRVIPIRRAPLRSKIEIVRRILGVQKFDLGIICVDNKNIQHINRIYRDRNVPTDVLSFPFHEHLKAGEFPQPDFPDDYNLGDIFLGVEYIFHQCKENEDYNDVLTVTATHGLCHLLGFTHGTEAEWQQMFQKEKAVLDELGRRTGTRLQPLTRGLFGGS
Experiment: affinity purification with mass spectrometry; α-FLAG antibody and protein A-sepharose on mitochondrial lysates (0.5% n-dodecyl-β-D-maltoside, 20 mM Tris-HCl pH 7.5, 150 mM KCl, 4°C) of SAL001 cells expressing YBEY-3 × FLAG; parental Flp-In T-REx 293 as control; LC-MS/MS, spectral counts; YBEY:p32 stoichiometry from spectral abundance factors

binding: binds
Substance: uS11m, endogenous
